The assay relates to L1210 leukemia ip in BDF1 mice, survival T/C. Kind of assay: NCI In Vivo Anticancer Drug Screen. Data for tumor model L1210 Leukemia (intraperitoneal) in B6D2F1 (BDF1) mice. The following applies: T/C endpoint: mean survival time, higher T/C = longer survival.

Structures are written as SMILES. The list does not hold the whole screen: it covers a few groups of compounds. Not every dose and run of a compound is shown. T/C gives the treated animals as a percentage of the vehicle group. Where survival is the endpoint, this PubChem deposit counts one and a half times the control or more as active, and values a quarter to a half above the control carry no call in these data; other NCI protocols may use other cut-offs. Some entries show no survivor count and are marked so; the dose need not have been tolerated. Schedules are NCI's codes, read here as Q, the interval in days (D) or hours (H), X, the number of doses. Additions like (4×) give the number of equal values in this list. Some entries hold several experiments; their values stand side by side, smallest first.

In the case of `O=CCCCc1ccc(N(CCCl)CCCl)cc1`, the T/C was 104 % of control [survivor count not shown] (dose: 1.0 mg/kg/injection, schedule: Q12HX018 (ip), vehicle: Klucel (hydroxypropylcellulose) (HPC)); 109 % of control [survivor count not shown] (dose: 1.0 mg/kg/injection, schedule: Q12HX018 (sc), vehicle: olive oil, sesame oil, peanut oil); 106 % of control [survivor count not shown] (dose: 2.0 mg/kg/injection, schedule: Q12HX018 (ip), vehicle: Klucel (hydroxypropylcellulose) (HPC)); 120 % of control [survivor count not shown] (dose: 2.0 mg/kg/injection, schedule: Q12HX018 (ip), vehicle: acetone); 106 % of control [survivor count not shown] (dose: 2.0 mg/kg/injection, schedule: Q12HX018 (sc), vehicle: olive oil, sesame oil, peanut oil); 105 % of control [survivor count not shown] (dose: 3.9 mg/kg/injection, schedule: Q12HX018 (ip), vehicle: Klucel (hydroxypropylcellulose) (HPC)). Also, the T/C (dose: 4.0 mg/kg/injection, schedule: Q12HX018 (ip), vehicle: Klucel (hydroxypropylcellulose) (HPC)) was 89 [survivor count not shown] and 93 % of control [survivor count not shown]; the T/C (dose: 4.0 mg/kg/injection, schedule: Q12HX018 (ip), vehicle: acetone) is 122 % of control [survivor count not shown]; the T/C (dose: 4.0 mg/kg/injection, schedule: Q12HX018 (sc), vehicle: olive oil, sesame oil, peanut oil) is 115 % of control [survivor count not shown]; the T/C (dose: 6.0 mg/kg/injection, schedule: Q12HX018 (ip), vehicle: Klucel (hydroxypropylcellulose) (HPC)) was 94 [survivor count not shown], 104 [survivor count not shown], 108 % of control [survivor count not shown]; the T/C (dose: 6.0 mg/kg/injection, schedule: Q12HX018 (ip), vehicle: acetone) is 156 % of control [survivor count not shown]; the T/C (dose: 6.0 mg/kg/injection, schedule: Q12HX018 (sc), vehicle: olive oil, sesame oil, peanut oil) is 131 % of control [survivor count not shown]. Moreover, the T/C is, setting by setting: (dose: 8.0 mg/kg/injection, schedule: Q12HX018 (ip), vehicle: Klucel (hydroxypropylcellulose) (HPC)) 94 [survivor count not shown] and 101 % of control [survivor count not shown]; (dose: 8.0 mg/kg/injection, schedule: Q12HX018 (ip), vehicle: acetone) 88 % of control [survivor count not shown]; (dose: 8.0 mg/kg/injection, schedule: Q12HX018 (sc), vehicle: olive oil, sesame oil, peanut oil) 129 % of control [survivor count not shown]; (dose: 9.0 mg/kg/injection, schedule: Q12HX018 (ip), vehicle: Klucel (hydroxypropylcellulose) (HPC)) 111 % of control [survivor count not shown]; (dose: 10.0 mg/kg/injection, schedule: Q12HX018 (ip), vehicle: Klucel (hydroxypropylcellulose) (HPC)) 106 % of control [survivor count not shown]; (dose: 10.0 mg/kg/injection, schedule: Q12HX018 (sc), vehicle: olive oil, sesame oil, peanut oil) 128 % of control [survivor count not shown]. For the same compound, the T/C by setting is: (dose: 12.0 mg/kg/injection, schedule: Q12HX018 (ip), vehicle: Klucel (hydroxypropylcellulose) (HPC)) 114 % of control [survivor count not shown]; (dose: 12.0 mg/kg/injection, schedule: Q12HX018 (sc), vehicle: olive oil, sesame oil, peanut oil) 107 % of control [survivor count not shown]; (dose: 13.0 mg/kg/injection, schedule: Q12HX018 (ip), vehicle: Klucel (hydroxypropylcellulose) (HPC)) 126 % of control [survivor count not shown]; (dose: 20.0 mg/kg/injection, schedule: Q12HX018 (ip), vehicle: Klucel (hydroxypropylcellulose) (HPC)) 112 % of control [survivor count not shown]; (dose: 30.0 mg/kg/injection, schedule: Q12HX018 (ip), vehicle: Klucel (hydroxypropylcellulose) (HPC)) 129 % of control [survivor count not shown].

Take `Cc1ccc(NC2(C(N)=O)CCNCC2)cc1`: the T/C (dose: 100.0 mg/kg/injection, schedule: Q01DX009 (ip), vehicle: saline) was 94 % of control [survivor count not shown]; the T/C (dose: 100.0 mg/kg/injection, schedule: Q04DX003 (ip), vehicle: saline) was 96 % of control [survivor count not shown]; the T/C (dose: 200.0 mg/kg/injection, schedule: Q01DX009 (ip), vehicle: saline) is 95 % of control [survivor count not shown]; the T/C (dose: 200.0 mg/kg/injection, schedule: Q04DX003 (ip), vehicle: saline) was 94 % of control [survivor count not shown]; the T/C (dose: 400.0 mg/kg/injection, schedule: Q04DX003 (ip), vehicle: saline) was 94 % of control [survivor count not shown].

Regarding `COc1ccc(N(CCCl)CCCl)cc1`, the T/C by setting is: (dose: 3.0 mg/kg/injection, schedule: Q01DX009 (ip), vehicle: saline) 113 % of control [survivor count not shown]; (dose: 5.0 mg/kg/injection, schedule: Q01DX009 (ip), vehicle: saline) 101 % of control [survivor count not shown]; (dose: 7.0 mg/kg/injection, schedule: Q01DX009 (ip), vehicle: saline) 102 % of control [survivor count not shown]; (dose: 8.0 mg/kg/injection, schedule: Q01DX009 (ip), vehicle: saline) 106 % of control [survivor count not shown]; (dose: 12.0 mg/kg/injection, schedule: Q01DX009 (ip), vehicle: saline) 113 % of control [survivor count not shown]; (dose: 14.0 mg/kg/injection, schedule: Q01DX009 (ip), vehicle: saline) 116 % of control [survivor count not shown]. For the same compound, the T/C is, setting by setting: (dose: 18.0 mg/kg/injection, schedule: Q01DX009 (ip), vehicle: acetone) 140 % of control [survivor count not shown]; (dose: 28.0 mg/kg/injection, schedule: Q01DX009 (ip), vehicle: saline) 110 % of control [survivor count not shown]; (dose: 35.0 mg/kg/injection, schedule: Q01DX009 (ip), vehicle: acetone) 128 % of control [survivor count not shown]; (dose: 37.5 mg/kg/injection, schedule: Q01DX001 (ip), vehicle: saline) 115 % of control [survivor count not shown]; (dose: 44.0 mg/kg/injection, schedule: Q01DX001 (ip), vehicle: saline) 109 % of control [survivor count not shown]; (dose: 56.0 mg/kg/injection, schedule: Q01DX009 (ip), vehicle: saline) 127 % of control [survivor count not shown] (2×). In addition, the T/C by setting is: (dose: 66.0 mg/kg/injection, schedule: Q01DX001 (ip), vehicle: saline) 98 % of control [survivor count not shown]; (dose: 75.0 mg/kg/injection, schedule: Q01DX001 (ip), vehicle: saline) 127 % of control [survivor count not shown]; (dose: 100.0 mg/kg/injection, schedule: Q01DX001 (ip), vehicle: saline) 106 % of control [survivor count not shown]; (dose: 113.0 mg/kg/injection, schedule: Q01DX009 (ip), vehicle: saline) 135 % of control [survivor count not shown]; (dose: 150.0 mg/kg/injection, schedule: Q01DX001 (ip), vehicle: saline) 117 [survivor count not shown] and 152 % of control [survivor count not shown]; (dose: 225.0 mg/kg/injection, schedule: Q01DX001 (ip), vehicle: saline) 117 [survivor count not shown] and 132 % of control [survivor count not shown]. In addition, the T/C (dose: 225.0 mg/kg/injection, schedule: Q01DX009 (ip), vehicle: saline) is 118 % of control [survivor count not shown]; the T/C (dose: 335.0 mg/kg/injection, schedule: Q01DX001 (ip), vehicle: saline) was 93 % of control [survivor count not shown]; the T/C (dose: 450.0 mg/kg/injection, schedule: Q01DX009 (ip), vehicle: saline) was 91 % of control [survivor count not shown]; the T/C (dose: 500.0 mg/kg/injection, schedule: Q01DX001 (ip), vehicle: saline) was 96 % of control [survivor count not shown].
